Laboratory results from patent US20230287376.

Biological target: BspQI (UniProt D2D3S6)
Assay: enzyme reaction in vitro
Details: NEBuffer 3.1, 50 C, 1 h, CE assay; purified recombinant protein; protein details: untagged, NEB R0712L; label: 5'-FAM on forward strand (10% labelled)

TGCCGCTTTCTGCATCAGCACATCATCTTCAGGCTCTTCGTCAGCCTCGCGCCGGTTCAG (double strand) [BspQI CE substrate]
activity on this sequence: active
